Test results taken from patent US20020127702.
The exact form of at least one protein or probe is not confirmed.

By UniProt entry, the sequences of proteins in these tests, tags left out. Residues count along the entry.
UniProt Q99459, 1-500: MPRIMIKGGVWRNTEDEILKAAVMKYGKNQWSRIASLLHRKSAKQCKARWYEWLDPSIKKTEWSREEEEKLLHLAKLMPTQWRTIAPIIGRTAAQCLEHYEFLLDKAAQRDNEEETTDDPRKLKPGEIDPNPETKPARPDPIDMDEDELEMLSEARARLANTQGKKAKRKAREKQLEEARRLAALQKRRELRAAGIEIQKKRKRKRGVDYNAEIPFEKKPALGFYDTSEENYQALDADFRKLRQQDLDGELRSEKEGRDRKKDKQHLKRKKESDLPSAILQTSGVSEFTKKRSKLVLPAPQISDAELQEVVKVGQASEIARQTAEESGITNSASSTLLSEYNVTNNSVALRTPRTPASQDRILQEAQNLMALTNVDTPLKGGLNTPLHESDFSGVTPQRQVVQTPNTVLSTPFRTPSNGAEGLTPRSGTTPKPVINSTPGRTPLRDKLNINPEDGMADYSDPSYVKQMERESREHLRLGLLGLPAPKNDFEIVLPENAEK

Molecular target: hCdc5 DNA-binding domain (aa 1-500) (Homo sapiens) (UniProt Q99459)
Test: SELEX
Details: all five sequenced round 8 products identical; Ni-NTA pulldown selection; purified recombinant protein; protein details: His6 fusion (pET29c(+), E. coli BL21(DE3), Ni-NTA); label: 32P

Question: With “GATTTAACATAA (double strand) [hCdc5 consensus site]” as the sequence, how does the selection result read?
Answer: The selection result was “selected”.
